{
  "source": "patent US10174013B2",
  "about": "“Benzimidazole derivatives as kinase inhibitors” (SELVITA S.A., priority 2012, dated 2019)",
  "key": {"FLT3-ITD": {"tested_on": "FLT3-ITD", "assay": "ADP-Glo Kinase Assay, Flt3 ITD", "assay_type": "biochemical, Human", "details": "1 μM compound", "procedure": "Compounds of the present invention were tested for their inhibitory activity against Pim-1, Pim-2, Pim-3, Flt3 wt, Flt3 ITD, CDK2/E and DYRK1. The testing of the compounds was carried out using the ADP-Glo™ Kinase Assay from Promega Corporation (Madison, Wis., USA).\nThe ADP-Glo™ Kinase Assay is a luminescent ADP detection assay to measure kinase activity by quantifying the amount of ADP produced during a kinase reaction. The kinase assay is performed in kinase assay buffer (5 mM MOPS, pH 7.5, 5 mM MgCl2, 0.4 mM EDTA, 1.5 mM DTT). Test samples initially dissolved in DMSO at 10 mM were diluted with the assay buffer to 1000 nM. A 30 μL volume/well of a mixture of substrates containing ATP (final ATP concentration in each kinase assay was equal to its apparent ATP Km).\nThe assay was performed in two steps: first, after the kinase reaction, an equal volume of ADP-Glo™ Reagent was added to terminate the kinase reaction and deplete the remaining ATP. Second, the Kinase Detection Reagent was added to simultaneously convert ADP to ATP and allowed the newly synthesized ATP to be measured using a luciferase/luciferin reaction. The luminescent signal generated was proportional to the ADP concentration produced and was correlated with kinase activity. A microplate spectrophotometer (Synergy 2 multi-mode microplate reader [BioTek]) was used for detecting the luminescence. […]"}, "[1]": {"tested_on": "Pim kinase biomarkers in MV4-11 cells", "assay": "Pim-kinase biomarkers in MV4-11 cells", "assay_type": "cell-based, Human", "details": "0.25-5 μM, 4 and 24 h", "procedure": "The efficacy of compounds 1A and 2A on Pim kinase-inhibition was tested in MV4-11 cells (see above). Cells were treated with each compound at concentrations of 0.25, 0.5, 1, 2.5 and 5 μM for 4 and 24 h. The positive control Ref A (the commercially available inhibitor SGI-1776 [obtained from Selleck Bio]) was used at a concentration of 5 μM. DMSO (Dimethyl sulfoxide) was used as a negative control. The levels of the following classical Pim-1 kinase biomarkers were assessed: c-Myc, phospho-4EBP1 (Ser65, Thr37&46) and phosphorylated S6 (Ser235). […] Also, the levels of pro-apoptotic and pro-survival biomarkers were assessed. First, induction of apoptosis, recognizable as an appearance and increased expression of cleaved form of the PARP protein, was observed, both at 4 and 24 hours after compound stimulation at high concentrations. […] Levels of tubulin were assessed as a reference loading control.\nThe efficacy of compound 1BI on Pim kinase-inhibition was tested in MV4-11 cells. The cells were treated with compound 1BI at concentrations of 0.25, 0.5, 1, 2.5 and 5 μM for 4 and 24 h. The positive controls Ref. A (SGI-1776, see above) and Ref. B (the commercially available inhibitor Sunitinib [obtained from Ark Pharm]) were used at 5 μM concentration. DMSO (Dimethyl sulfoxide) was used as a negative control. The levels of the following classical Pim-1 kinase biomarkers were assessed: c-myc, phospho-4EBP1 (Ser65, Thr37&46) and phosphorylated S6 (Ser235/236). […] The levels of pro-apoptotic and pro-survival biomarkers were also assessed. […] Levels of tubulin were assessed as a reference loading control."}},
  "note": "Counter-ions that a name gives are not always drawn. For at least one compound, name, drawing or mass did not settle the structure.",
  "data": [
    {"molecule": "CC(C)n1c(N2CCNCC2)nc2c([N+](=O)[O-])c(Br)c(Br)cc21", "note": "[Example 2A, 5,6-dibromo-4-nitro-2-(piperazin-1-yl)-1-(propan-2-yl)-1H-1,3-benzodiazole hydrochloride]", "values": [
      {"measurement": "Flt3ITD % INH (1 μM)", "setting": "FLT3-ITD", "value": 93, "unit": "%"},
      {"measurement": "Mcl-1 pro-survival protein level", "setting": "[1]", "value": "dosed-dependent protein down-regulation"},
      {"measurement": "induction of apoptosis (cleaved form of PARP protein)", "setting": "[1]", "value": "observed"},
      {"measurement": "levels of c-myc protein", "setting": "[1]", "value": "downregulated"},
      {"measurement": "levels of phosphorylated 4EBP1 (Ser65, Thr37&46)", "setting": "[1]", "value": "downregulated"},
      {"measurement": "levels of phosphorylated S6", "setting": "[1]", "value": "downregulated"},
      {"measurement": "levels of phosphorylated p44/42 (Erk1/2), Flt3 biomarker", "setting": "[1]", "value": "downregulated"}
    ]}
  ]
}
